Like-named read-outs stand apart in the source and are kept apart here. Results are given in words; binding and its absence hold for the method and conditions named. Binding seen in cells or lysates may run through a third protein. Some results given as binding are weak or reduced against the parent protein; the word gives no strength. For part of these data: Tags and fused reporters may be left off the sequences shown.

Chains of the proteins cited; added tags and fusions are not shown. Lines headed by an entry give the natural chain unless they say otherwise; changes in a name come on top. Residues count along the entry.
UniProt Q16665: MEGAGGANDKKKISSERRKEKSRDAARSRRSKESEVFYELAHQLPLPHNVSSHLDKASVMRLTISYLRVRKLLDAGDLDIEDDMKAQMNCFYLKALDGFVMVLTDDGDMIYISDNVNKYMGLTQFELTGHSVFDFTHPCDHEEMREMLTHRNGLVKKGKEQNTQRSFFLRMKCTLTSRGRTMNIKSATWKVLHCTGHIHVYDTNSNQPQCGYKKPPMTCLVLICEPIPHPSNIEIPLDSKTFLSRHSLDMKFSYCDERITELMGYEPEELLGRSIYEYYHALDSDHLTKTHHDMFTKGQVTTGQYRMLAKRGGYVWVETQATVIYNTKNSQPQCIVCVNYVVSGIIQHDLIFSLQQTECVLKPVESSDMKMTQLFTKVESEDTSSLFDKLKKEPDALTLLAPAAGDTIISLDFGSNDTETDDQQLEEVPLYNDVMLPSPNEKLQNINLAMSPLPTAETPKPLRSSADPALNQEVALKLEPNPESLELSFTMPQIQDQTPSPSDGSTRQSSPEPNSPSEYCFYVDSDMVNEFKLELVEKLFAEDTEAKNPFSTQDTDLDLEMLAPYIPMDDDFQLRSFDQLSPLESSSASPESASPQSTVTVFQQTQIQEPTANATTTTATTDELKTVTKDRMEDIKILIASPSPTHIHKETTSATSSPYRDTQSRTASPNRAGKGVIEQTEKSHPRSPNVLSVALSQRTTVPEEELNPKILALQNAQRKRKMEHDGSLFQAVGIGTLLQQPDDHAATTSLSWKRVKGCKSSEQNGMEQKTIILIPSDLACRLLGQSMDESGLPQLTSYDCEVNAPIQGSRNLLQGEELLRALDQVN
UniProt Q76N89: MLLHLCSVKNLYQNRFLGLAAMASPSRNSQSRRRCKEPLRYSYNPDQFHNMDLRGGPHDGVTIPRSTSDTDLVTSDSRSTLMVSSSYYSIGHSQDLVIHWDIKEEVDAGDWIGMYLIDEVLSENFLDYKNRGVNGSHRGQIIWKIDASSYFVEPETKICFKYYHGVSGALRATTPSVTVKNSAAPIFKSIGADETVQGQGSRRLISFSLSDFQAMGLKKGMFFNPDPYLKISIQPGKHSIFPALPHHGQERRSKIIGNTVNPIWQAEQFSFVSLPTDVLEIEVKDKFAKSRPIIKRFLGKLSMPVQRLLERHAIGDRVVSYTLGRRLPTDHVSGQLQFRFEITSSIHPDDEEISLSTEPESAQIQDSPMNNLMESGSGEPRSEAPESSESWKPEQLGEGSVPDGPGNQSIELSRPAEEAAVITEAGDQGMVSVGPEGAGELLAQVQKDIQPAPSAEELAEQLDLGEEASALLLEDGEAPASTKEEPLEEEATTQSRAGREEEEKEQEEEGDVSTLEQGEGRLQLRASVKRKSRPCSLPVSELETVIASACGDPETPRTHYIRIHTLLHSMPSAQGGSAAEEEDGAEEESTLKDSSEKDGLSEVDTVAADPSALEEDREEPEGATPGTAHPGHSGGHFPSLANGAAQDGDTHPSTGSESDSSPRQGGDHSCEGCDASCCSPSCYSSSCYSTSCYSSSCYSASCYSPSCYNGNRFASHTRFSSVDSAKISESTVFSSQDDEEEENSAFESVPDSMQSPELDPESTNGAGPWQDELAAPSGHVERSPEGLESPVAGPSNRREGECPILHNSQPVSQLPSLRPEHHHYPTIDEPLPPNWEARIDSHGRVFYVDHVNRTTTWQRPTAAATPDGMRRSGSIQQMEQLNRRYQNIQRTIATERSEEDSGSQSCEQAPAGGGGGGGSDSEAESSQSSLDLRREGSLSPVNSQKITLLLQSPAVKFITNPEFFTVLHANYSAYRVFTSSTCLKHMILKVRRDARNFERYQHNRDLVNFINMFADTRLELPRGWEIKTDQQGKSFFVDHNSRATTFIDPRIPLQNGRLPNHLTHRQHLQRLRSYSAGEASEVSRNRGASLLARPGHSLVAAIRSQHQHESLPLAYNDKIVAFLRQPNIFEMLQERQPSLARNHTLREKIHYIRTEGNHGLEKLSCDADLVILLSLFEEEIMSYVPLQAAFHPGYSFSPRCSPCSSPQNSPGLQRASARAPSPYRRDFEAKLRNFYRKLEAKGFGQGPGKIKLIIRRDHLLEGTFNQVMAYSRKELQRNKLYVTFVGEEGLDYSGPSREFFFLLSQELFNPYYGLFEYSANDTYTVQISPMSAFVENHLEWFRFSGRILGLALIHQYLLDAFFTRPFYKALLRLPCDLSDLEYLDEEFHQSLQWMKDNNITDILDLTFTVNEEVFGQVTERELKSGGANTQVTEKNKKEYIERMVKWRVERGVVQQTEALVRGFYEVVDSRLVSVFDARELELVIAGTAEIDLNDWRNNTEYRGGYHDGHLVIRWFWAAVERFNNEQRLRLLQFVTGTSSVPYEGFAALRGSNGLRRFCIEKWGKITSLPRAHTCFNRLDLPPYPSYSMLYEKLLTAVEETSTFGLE
UniProt P46934: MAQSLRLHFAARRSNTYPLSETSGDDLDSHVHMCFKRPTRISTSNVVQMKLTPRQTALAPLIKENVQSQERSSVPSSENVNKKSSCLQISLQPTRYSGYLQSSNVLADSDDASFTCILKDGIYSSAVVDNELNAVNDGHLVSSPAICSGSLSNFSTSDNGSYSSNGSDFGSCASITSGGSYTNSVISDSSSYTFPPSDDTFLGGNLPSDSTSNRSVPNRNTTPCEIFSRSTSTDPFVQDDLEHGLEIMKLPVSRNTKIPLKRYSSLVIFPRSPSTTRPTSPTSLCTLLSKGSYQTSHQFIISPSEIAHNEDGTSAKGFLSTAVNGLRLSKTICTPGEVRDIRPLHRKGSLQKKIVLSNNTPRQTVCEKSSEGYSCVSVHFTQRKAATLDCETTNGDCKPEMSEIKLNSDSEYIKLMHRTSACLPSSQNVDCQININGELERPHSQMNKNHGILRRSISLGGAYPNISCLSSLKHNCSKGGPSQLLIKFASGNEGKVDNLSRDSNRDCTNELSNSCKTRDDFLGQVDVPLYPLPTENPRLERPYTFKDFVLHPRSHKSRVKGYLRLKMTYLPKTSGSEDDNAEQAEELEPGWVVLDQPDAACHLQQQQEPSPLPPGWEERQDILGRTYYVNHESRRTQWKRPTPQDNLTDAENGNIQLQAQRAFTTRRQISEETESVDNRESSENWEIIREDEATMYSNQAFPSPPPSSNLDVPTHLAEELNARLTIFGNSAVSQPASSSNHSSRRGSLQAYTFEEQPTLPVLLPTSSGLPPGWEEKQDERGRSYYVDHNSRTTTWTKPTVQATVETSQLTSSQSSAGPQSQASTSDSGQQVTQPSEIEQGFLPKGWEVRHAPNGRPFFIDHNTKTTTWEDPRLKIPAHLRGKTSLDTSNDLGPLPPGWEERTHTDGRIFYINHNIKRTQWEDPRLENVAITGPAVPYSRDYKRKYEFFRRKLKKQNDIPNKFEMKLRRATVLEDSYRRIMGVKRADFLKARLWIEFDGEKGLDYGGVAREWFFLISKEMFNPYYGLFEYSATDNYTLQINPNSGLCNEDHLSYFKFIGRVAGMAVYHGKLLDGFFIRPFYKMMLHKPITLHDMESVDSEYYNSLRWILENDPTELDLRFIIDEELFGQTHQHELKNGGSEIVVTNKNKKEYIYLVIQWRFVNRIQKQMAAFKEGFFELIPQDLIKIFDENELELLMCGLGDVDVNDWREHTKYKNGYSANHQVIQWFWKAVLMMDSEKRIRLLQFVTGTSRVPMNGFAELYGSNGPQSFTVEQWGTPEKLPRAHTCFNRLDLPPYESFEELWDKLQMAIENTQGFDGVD
Flag-NEDD4-1 (AAs: 1-930): residues 1-930 of P46934
UniProt Q9HCE7: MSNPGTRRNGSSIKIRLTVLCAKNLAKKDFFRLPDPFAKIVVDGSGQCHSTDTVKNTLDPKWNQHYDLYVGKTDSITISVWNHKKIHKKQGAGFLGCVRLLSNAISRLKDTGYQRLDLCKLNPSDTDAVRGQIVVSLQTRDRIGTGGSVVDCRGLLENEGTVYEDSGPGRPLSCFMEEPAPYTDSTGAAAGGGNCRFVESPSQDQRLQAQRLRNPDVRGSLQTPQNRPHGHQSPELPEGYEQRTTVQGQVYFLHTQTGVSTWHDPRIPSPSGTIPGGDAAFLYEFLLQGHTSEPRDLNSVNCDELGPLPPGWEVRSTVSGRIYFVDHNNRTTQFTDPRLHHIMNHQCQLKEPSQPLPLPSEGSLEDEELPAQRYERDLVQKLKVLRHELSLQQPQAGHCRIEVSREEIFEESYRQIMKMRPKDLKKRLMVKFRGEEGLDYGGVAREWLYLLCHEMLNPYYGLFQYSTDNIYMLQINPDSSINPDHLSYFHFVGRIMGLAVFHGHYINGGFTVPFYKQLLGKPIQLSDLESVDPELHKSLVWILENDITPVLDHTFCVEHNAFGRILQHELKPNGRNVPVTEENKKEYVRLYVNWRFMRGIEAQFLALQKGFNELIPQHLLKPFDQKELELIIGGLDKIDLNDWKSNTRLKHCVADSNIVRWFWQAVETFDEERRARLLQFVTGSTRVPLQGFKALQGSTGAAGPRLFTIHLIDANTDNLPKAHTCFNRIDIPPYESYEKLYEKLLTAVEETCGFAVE
UniProt Q96J02: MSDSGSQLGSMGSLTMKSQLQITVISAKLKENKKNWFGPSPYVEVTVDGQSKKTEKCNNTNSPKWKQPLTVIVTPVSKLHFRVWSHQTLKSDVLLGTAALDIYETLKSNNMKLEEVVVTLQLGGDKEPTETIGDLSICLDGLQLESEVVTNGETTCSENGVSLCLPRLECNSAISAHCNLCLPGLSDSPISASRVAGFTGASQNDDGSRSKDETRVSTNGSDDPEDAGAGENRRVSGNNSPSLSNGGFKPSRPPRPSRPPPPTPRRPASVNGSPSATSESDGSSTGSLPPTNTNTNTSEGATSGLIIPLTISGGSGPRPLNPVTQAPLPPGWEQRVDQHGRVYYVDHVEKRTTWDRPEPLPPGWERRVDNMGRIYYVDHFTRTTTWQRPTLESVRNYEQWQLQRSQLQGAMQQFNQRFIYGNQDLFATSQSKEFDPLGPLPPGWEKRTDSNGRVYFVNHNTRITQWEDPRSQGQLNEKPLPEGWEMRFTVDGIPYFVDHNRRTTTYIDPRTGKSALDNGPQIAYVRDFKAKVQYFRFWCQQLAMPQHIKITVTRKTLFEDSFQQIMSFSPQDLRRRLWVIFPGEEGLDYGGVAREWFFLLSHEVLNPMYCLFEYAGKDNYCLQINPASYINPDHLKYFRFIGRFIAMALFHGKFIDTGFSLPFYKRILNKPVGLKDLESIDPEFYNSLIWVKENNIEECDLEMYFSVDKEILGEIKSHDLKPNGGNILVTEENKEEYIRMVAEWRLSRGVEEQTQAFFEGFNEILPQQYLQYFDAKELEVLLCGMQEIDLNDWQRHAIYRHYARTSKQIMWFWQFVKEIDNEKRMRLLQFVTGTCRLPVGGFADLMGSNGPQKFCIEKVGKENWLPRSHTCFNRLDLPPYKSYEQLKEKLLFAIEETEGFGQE
UniProt Q96PU5: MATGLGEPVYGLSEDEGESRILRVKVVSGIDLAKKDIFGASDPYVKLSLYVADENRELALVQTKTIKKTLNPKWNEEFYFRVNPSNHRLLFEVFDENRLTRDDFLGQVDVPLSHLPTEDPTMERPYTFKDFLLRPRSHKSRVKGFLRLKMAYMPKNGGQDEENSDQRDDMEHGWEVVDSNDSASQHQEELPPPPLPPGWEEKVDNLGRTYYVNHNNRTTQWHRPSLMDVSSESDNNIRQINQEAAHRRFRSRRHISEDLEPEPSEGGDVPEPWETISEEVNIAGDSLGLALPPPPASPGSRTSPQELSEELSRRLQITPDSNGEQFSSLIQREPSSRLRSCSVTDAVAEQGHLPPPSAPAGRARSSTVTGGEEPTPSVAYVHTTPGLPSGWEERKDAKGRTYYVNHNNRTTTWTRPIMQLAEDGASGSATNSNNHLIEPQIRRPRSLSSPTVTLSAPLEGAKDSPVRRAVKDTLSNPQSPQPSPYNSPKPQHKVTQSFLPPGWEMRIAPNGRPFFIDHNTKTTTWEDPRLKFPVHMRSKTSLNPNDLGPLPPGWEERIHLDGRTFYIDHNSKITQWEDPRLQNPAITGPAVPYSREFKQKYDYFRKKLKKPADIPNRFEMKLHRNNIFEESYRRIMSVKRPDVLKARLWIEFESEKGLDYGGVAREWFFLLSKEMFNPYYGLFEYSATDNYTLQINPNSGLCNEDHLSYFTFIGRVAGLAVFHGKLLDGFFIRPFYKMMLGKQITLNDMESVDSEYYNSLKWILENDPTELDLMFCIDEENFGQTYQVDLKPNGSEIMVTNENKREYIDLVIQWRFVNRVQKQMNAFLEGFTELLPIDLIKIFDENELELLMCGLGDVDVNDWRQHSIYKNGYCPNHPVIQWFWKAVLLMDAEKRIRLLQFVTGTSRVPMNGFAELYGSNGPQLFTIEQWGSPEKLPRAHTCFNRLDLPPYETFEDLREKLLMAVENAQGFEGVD

Assay [1] has as its target T1, PPA2, endogenous (human (endogenous in DLD1)) (UniProt Q9H2U2).
T1 sequence: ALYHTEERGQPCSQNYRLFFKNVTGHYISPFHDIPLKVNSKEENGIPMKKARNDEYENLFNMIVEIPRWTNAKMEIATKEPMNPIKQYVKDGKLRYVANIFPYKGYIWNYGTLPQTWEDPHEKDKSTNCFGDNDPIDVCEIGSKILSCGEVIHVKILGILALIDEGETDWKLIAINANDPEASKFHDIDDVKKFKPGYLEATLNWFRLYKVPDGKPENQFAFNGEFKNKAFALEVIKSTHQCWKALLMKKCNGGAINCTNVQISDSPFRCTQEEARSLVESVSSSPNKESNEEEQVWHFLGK
The experiment in a line: co-IP; endogenous co-IP: untransfected DLD1 cells under normoxia or hypoxia, lysate with antibody plus protein A/G beads, 4 °C overnight.

In assay [2] the target is T2, Flag-PPA2 WT (inorganic pyrophosphatase 2) (human) (UniProt Q9H2U2).
T2 sequence: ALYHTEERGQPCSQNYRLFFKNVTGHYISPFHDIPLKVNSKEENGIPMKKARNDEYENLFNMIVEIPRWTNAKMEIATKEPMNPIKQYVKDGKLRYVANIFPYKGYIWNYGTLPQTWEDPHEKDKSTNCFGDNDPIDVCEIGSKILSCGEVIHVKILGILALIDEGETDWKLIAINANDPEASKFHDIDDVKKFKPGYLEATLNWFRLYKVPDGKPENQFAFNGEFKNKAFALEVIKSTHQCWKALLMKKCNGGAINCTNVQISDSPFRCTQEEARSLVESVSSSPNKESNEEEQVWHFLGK
Put plainly: co-IP; exogenous co-IP: tagged proteins co-transfected in DLD1 cells, lysed 24 h later in Pierce IP lysis buffer, anti-FLAG M2 Affinity Gel or antibody plus protein A/G beads, 4 °C overnight; MG132 (5 μM, 6 h) as indicated; normoxia or hypoxia (1% O2, last 2 h or indicated time); some panels in shNEDD4, shPPA2 or shSIRT5 cells.

The target in assay [3] is Flag-HIF-1α (hypoxia-inducible factor 1 alpha) (human) (UniProt Q16665). The description is as above.
A further assay addresses Flag-WWP1 (human) (UniProt Q9H0M0). Described as above.
In another assay the target is Flag-HECW1 (human) (UniProt Q76N89). The assay is described as above.
In the next assay the target is Flag-WWP2 (human) (UniProt O00308). The description is as above.
Assay [4] deals with Flag-NEDD4-FL (full length) (human) (UniProt P46934). The assay is described as above.
The next assay concerns the target Flag-NEDD4 T758A (human) (UniProt P46934). The description is as above.
For the next assay, the target named is Flag-Smurf1 (human) (UniProt Q9HCE7). Described as above.
In the next assay the target is Flag-ITCH (human) (UniProt Q96J02). The description is as above.
The next assay addresses Flag-HECW2 (human) (UniProt Q9P2P5). The assay is described as above.
In the next assay the target is Flag-NEDD4L (human) (UniProt Q96PU5). Described as above.
Assay [5] deals with Flag-NEDD4-1 (AAs: 1-930) (human) (UniProt P46934). The description is as above.
The target of another assay is HA-NEDD4 (human) (UniProt P46934). The description is as above.
The target in assay [6] is HA-HIF-1α (hypoxia-inducible factor 1 alpha) (human) (UniProt Q16665). The assay is described as above.
For assay [7], the target named is Flag-HIF-1α (hypoxia-inducible factor 1 alpha) (human) (UniProt Q16665). The description is as above. The source holds these as a separate data set.
Assay [8] deals with Flag-NEDD4-FL (full length) (human) (UniProt P46934). The assay is described as above. This is another data set of the same source.

For the molecule “NEDD4, endogenous (from UniProt P46934 1-1319) (enzyme)”, the binding result in assay [1] is on record as “binds”.

For the molecule “HA-NEDD4 (from UniProt P46934 1-1319) (enzyme)”, the binding result in assay [2] and in [3] was “binds” in each case.

On to “HA-HIF-1α (hypoxia-inducible factor 1 alpha) (from UniProt Q16665 1-826)”, for which the binding result is “no binding” with Flag-WWP1 (human); “binds” in assay [2]; “no binding” with Flag-HECW1 (human); “binds” with Flag-WWP2 (human); “binds” in assay [4]; “binds” in the assay with Flag-NEDD4 T758A (human). Besides, the binding result with Flag-Smurf1 (human) is given as “no binding”; in the assay with Flag-ITCH (human), “no binding”; in the assay with Flag-HECW2 (human), “no binding”; with Flag-NEDD4L (human) it was “binds”.

B1: Myc-PPA2 (inorganic pyrophosphatase 2) (enzyme, UniProt Q9H2U2 33-334)
chain: ALYHTEERGQPCSQNYRLFFKNVTGHYISPFHDIPLKVNSKEENGIPMKKARNDEYENLFNMIVEIPRWTNAKMEIATKEPMNPIKQYVKDGKLRYVANIFPYKGYIWNYGTLPQTWEDPHEKDKSTNCFGDNDPIDVCEIGSKILSCGEVIHVKILGILALIDEGETDWKLIAINANDPEASKFHDIDDVKKFKPGYLEATLNWFRLYKVPDGKPENQFAFNGEFKNKAFALEVIKSTHQCWKALLMKKCNGGAINCTNVQISDSPFRCTQEEARSLVESVSSSPNKESNEEEQVWHFLGK
Turning to B1, the binding result (in assay [5]; with HA-NEDD4 (human); in [6]; in assay [7]; in assay [8]) was “binds” in each case.

The values above are taken from paper PMC12048626.
